Data from the supplement of paper PMC12819154, “High-throughput peptide-centric local stability assay extends protein–ligand identification to membrane proteins, tissues and bacteria” (Nature Structural & Molecular Biology, 2025).
Some of the results follow. Most values lie at the level of the controls, where differences are scatter.

By UniProt entry, the sequences of proteins in these tests, tags left out. Where a name states a change or a piece, a line headed by the entry shows the natural chain unless it says otherwise.
UniProt Q9P031: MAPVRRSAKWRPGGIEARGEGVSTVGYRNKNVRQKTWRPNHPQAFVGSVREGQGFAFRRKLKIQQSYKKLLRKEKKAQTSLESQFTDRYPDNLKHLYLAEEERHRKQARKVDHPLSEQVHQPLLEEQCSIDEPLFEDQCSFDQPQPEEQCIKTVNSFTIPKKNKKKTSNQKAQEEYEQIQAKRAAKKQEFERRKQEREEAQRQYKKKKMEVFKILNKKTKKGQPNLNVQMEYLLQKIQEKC
UniProt Q9UBT2: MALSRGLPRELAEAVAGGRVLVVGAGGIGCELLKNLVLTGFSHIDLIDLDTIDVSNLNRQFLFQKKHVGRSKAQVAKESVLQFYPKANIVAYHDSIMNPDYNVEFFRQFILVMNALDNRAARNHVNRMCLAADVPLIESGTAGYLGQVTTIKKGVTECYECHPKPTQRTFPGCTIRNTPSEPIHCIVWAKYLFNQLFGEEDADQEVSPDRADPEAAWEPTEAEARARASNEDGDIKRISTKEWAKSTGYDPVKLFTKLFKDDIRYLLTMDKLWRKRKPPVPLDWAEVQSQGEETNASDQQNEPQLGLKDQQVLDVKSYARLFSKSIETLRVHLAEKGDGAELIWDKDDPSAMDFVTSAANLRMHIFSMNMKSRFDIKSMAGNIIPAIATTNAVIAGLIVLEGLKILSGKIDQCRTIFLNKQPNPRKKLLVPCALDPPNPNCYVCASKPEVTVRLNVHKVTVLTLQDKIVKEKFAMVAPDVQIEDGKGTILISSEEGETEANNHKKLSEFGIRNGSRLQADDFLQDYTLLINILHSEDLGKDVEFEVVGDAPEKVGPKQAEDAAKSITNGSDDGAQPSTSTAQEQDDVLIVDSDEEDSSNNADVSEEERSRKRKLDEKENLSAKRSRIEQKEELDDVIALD
UniProt Q9UDY4: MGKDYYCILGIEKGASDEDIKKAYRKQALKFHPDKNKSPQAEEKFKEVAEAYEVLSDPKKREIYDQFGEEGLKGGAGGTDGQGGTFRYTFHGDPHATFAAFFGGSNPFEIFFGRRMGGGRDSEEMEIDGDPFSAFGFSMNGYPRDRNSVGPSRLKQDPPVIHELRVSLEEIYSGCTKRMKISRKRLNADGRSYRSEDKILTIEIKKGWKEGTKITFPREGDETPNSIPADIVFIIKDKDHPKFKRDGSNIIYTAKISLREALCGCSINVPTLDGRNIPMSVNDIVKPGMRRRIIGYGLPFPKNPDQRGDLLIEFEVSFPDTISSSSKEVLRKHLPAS
UniProt Q9NXL9: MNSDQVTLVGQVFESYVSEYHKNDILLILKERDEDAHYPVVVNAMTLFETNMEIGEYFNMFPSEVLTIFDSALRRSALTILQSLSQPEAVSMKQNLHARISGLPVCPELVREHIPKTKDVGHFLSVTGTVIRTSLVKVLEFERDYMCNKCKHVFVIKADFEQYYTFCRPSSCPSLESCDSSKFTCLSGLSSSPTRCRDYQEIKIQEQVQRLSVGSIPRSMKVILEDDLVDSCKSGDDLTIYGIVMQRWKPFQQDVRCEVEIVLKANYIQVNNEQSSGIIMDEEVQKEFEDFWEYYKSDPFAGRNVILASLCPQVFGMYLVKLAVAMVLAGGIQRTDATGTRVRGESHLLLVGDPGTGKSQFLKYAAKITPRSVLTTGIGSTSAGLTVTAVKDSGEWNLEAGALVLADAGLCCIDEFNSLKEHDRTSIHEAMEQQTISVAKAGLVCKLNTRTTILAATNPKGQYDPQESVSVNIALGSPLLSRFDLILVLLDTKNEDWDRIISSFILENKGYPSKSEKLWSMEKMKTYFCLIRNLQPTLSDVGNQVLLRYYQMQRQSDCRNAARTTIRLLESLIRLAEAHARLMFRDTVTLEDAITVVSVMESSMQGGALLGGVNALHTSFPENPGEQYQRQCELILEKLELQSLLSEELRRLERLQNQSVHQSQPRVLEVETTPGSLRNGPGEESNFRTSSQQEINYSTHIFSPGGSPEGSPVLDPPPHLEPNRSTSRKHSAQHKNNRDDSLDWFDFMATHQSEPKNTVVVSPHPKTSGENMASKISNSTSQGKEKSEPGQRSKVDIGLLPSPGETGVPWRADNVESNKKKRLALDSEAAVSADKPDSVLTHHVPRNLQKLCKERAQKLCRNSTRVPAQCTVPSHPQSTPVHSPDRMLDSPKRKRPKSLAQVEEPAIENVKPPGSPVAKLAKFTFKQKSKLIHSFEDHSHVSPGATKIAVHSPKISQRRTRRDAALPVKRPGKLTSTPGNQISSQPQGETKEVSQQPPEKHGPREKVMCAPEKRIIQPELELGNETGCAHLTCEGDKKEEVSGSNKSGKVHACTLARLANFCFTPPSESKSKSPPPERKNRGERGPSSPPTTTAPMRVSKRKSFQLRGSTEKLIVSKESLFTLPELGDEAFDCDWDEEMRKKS
UniProt Q9UHB6: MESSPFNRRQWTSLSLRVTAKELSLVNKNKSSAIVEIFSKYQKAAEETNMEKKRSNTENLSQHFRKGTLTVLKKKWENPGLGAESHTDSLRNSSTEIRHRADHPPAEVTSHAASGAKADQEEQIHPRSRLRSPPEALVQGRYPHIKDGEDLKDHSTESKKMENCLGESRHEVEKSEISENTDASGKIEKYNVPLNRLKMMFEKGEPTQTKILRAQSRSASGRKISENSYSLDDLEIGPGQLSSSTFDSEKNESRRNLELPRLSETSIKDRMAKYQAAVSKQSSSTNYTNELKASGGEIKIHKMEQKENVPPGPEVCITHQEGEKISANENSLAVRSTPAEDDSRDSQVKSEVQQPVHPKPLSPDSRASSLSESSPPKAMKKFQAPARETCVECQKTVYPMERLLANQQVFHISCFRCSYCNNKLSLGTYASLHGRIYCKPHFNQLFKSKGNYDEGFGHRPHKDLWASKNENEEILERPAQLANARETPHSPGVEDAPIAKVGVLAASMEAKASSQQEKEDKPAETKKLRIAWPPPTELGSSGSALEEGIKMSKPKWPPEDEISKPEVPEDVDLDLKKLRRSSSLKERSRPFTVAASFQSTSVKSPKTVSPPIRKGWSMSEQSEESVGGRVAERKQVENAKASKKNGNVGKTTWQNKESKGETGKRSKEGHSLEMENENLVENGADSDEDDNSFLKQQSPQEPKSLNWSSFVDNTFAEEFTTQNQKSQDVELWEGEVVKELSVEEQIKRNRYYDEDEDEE
UniProt Q9UBL3, whole entry: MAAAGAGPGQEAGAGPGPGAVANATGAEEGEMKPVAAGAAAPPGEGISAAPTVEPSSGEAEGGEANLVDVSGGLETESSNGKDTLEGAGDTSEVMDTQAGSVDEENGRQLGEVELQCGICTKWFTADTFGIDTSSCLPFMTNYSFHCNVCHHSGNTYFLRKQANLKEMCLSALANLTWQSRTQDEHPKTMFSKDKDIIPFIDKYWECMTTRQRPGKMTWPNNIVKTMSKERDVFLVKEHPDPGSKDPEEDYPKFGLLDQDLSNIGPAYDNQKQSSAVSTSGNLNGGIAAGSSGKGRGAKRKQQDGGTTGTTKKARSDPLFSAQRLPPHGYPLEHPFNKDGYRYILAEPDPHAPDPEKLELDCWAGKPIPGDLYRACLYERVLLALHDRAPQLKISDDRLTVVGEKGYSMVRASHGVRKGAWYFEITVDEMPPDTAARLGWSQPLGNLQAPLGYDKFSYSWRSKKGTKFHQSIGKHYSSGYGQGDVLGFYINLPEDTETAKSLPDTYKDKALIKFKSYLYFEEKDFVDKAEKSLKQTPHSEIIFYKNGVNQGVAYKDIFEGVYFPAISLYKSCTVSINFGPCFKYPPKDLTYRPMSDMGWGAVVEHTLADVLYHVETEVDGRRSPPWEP
UniProt Q9UET6: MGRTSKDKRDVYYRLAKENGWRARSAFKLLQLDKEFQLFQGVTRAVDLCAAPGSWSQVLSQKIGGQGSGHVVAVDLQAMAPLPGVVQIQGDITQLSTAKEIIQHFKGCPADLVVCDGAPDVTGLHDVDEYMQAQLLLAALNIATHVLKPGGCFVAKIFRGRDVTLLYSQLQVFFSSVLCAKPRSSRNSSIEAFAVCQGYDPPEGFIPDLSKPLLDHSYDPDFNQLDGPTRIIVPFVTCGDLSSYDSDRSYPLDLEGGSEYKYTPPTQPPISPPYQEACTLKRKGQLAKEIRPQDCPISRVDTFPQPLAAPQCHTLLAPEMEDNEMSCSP
UniProt Q9NX24: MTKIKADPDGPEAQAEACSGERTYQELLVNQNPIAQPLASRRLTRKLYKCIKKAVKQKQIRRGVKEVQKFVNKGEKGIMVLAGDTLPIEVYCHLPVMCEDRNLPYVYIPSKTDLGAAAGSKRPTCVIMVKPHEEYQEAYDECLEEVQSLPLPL
UniProt Q9P278: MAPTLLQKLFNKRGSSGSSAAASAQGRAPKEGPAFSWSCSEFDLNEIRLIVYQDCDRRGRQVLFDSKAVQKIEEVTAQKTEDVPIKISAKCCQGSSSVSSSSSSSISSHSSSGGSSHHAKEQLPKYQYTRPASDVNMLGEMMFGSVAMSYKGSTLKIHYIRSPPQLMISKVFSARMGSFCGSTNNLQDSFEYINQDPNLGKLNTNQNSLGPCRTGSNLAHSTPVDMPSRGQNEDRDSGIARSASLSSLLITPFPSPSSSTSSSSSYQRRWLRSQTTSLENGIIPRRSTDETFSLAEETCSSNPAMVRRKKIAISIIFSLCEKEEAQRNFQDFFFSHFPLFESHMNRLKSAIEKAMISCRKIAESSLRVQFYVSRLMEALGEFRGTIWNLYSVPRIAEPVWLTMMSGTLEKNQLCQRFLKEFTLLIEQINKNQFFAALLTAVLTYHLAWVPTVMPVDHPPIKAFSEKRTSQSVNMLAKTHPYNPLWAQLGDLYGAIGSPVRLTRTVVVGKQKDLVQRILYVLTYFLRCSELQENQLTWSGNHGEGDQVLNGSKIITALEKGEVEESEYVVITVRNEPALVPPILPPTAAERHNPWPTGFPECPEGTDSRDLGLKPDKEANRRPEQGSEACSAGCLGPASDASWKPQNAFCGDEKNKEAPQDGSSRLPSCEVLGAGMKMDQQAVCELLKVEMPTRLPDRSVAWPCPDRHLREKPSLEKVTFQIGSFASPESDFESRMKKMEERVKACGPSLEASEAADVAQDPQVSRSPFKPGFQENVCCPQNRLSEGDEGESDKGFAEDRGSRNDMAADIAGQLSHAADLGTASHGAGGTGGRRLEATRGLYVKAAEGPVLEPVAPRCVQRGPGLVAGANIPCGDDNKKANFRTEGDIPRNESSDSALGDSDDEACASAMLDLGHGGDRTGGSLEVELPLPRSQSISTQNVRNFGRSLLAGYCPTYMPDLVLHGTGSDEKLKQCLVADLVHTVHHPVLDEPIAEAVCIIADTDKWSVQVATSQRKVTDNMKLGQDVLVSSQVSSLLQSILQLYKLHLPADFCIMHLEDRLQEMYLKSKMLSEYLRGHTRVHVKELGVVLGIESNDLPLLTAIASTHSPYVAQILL
UniProt Q9P0U4, whole entry: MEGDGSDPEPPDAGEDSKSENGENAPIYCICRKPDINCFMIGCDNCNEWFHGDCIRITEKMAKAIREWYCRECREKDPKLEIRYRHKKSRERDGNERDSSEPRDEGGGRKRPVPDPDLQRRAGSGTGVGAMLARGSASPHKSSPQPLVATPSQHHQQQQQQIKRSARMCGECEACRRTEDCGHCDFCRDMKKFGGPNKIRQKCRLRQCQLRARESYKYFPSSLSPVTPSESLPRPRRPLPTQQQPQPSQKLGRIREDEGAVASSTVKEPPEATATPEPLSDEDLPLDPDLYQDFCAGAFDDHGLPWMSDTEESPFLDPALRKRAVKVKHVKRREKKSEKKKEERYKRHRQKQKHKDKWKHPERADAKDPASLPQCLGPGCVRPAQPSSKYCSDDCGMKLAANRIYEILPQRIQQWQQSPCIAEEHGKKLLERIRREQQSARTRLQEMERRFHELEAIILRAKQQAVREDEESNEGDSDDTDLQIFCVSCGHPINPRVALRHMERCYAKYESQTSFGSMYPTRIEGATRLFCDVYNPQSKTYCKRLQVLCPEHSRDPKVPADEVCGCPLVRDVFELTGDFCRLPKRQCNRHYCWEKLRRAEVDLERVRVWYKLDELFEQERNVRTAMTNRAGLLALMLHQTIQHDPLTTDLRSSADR
UniProt Q9NXN4: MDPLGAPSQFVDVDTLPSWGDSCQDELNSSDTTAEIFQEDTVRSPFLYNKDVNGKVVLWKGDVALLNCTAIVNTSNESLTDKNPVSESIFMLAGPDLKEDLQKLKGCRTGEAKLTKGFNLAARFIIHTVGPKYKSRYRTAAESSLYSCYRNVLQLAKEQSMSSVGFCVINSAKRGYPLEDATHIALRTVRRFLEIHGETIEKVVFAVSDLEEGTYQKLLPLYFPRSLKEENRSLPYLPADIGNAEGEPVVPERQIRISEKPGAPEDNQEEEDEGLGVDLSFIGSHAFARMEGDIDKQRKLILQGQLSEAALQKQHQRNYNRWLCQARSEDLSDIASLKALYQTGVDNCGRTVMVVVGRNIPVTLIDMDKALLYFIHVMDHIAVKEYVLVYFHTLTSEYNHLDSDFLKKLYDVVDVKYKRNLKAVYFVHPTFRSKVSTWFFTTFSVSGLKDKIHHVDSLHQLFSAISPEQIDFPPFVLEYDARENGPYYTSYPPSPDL

Compound: Cc1nc(Nc2ncc(C(=O)Nc3c(C)cccc3Cl)s2)cc(N2CCN(CCO)CC2)n1 [dasatinib]
Experiment: log2 fold change of tryptic peptide abundance, ligand vs vehicle (limited proteolysis) (log2 ratio); higher = more trypsin-susceptible (destabilized)
Settings: ligand concentration: 5 uM; sample: K562 cleared lysate

Target	log2 fold change
DTL (peptide sequence: MLFNSVLR, peptide start residue: 1) (UniProt Q9NZJ0)	0.295
NCKIPSD (peptide sequence: RKDDAQQR, peptide start residue: 392) (UniProt Q9NZQ3)	-0.571
CCDC59 (peptide sequence: AQEEYEQIQAK, peptide start residue: 172) (UniProt Q9P031)	0.284
HMG20B (peptide sequence: APGQHGGFVVTVK, peptide start residue: 19) (UniProt Q9P0W2)	-0.22
ARL15 (peptide sequence: KYFELEPLAR, peptide start residue: 157) (UniProt Q9NXU5)	0.435
UBA2 (peptide sequence: STGYDPVK, peptide start residue: 246) (UniProt Q9UBT2)	0.118
CDKN2AIP (peptide sequence: VTDAPTYTTR, peptide start residue: 109) (UniProt Q9NXV6)	-0.293
DNAJB4 (peptide sequence: DGSNIIYTAK, peptide start residue: 246) (UniProt Q9UDY4)	-0.335
KCTD5 (peptide sequence: GGIGAGLGGGLCR, peptide start residue: 14) (UniProt Q9NXV2)	-0.492
MCM9 (peptide sequence: NGPGEESNFR, peptide start residue: 679) (UniProt Q9NXL9)	-0.289
LIMA1 (peptide sequence: SEISENTDASGKIEK, peptide start residue: 175) (UniProt Q9UHB6)	0.202
APEX2 (peptide sequence: STRPQPSQVGSSR, peptide start residue: 376) (UniProt Q9UBZ4)	0.0208
PSMC3IP (peptide sequence: EIQELKK, peptide start residue: 129) (UniProt Q9P2W1)	0.231
USE1 (peptide sequence: ALANQFLAPGRVPTTAR, peptide start residue: 84) (UniProt Q9NZ43)	0.212
ASH2L (peptide sequence: NGVNQGVAYK, peptide start residue: 546) (UniProt Q9UBL3)	-0.488
VPS54 (peptide sequence: LSHYLDIVEVNIAHQISLR, peptide start residue: 209) (UniProt Q9P1Q0)	0.257
FTSJ1 (peptide sequence: EIRPQDCPISR, peptide start residue: 289) (UniProt Q9UET6)	0.00378
UniProt Q9NXR5 (peptide sequence: KRCLEDSEDFGVK, peptide start residue: 213)	-0.624
FOXJ2 (peptide sequence: ESAEGPPPLYNTNHDFK, peptide start residue: 224) (UniProt Q9P0K8)	-0.071
NHP2 (peptide sequence: IKADPDGPEAQAEACSGER, peptide start residue: 4) (UniProt Q9NX24)	0.0354
CTSZ (peptide sequence: NQHIPQYCGSCWAHASTSAMADR, peptide start residue: 82) (UniProt Q9UBR2)	0.198
UniProt Q9P278 (peptide sequence: EQLPKYQYTR, peptide start residue: 121)	-0.319
CXXC1 (peptide sequence: IREDEGAVASSTVK, peptide start residue: 254) (UniProt Q9P0U4)	0.319
STX18 (peptide sequence: KDYINAYSHTMSEYGR, peptide start residue: 72) (UniProt Q9P2W9)	0.225
MTMR10 (peptide sequence: TLFHNPFYIGK, peptide start residue: 550) (UniProt Q9NXD2)	0.241
GDAP2 (peptide sequence: SEDLSDIASLK, peptide start residue: 328) (UniProt Q9NXN4)	0.273
UniProt Q9NYU1 (peptide sequence: SFTVSLHK, peptide start residue: 1215)	-0.0663
ZC3H7B (peptide sequence: FVCGQCWR, peptide start residue: 695) (UniProt Q9UGR2)	-0.123

2 entries from above, reformatted:
ARL15 (peptide sequence: KYFELEPLAR, peptide start residue: 157) (UniProt Q9NXU5)
  log2 fold change: 0.435
UBA2 (peptide sequence: STGYDPVK, peptide start residue: 246) (UniProt Q9UBT2)
  log2 fold change: 0.118
